Data as given in PubChem BioAssay AID1053208 (Peter MacCallum Cancer Centre, 2014)
Shown is an unselected part of about 17,000 reagents tested. Over the whole deposit, 788 (4.7%) are marked active. 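Calls rest on z-score classes alone; an extra cut-off of viability at most 70% of control was not applied to them.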 Entries without a mark were called inactive. No sequences are given here.

- Purpose: 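Genes whose silencing cuts survival of bone tumour cells only with doxorubicin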 (primary screen)
- System: mouse osteosarcoma cells, early-passage culture from an engineered mouse model of fibroblastic bone tumour
- Knock-down reagent: siRNA pool against mouse genes, 40 nM
- Timing: about 120 h (48 h before drug, then 72 h with drug)
- Treatment: doxorubicin 100 nM for 72 h, roughly 30-40% inhibitory dose
- Measured: 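Viability read as ATP luminescence after 72 h of 100 nM doxorubicin or none, duplicate wells averaged, scaled to non-targeting siRNA, then expressed as robust z-scores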
- Reading the numbers: viability z-score with doxorubicin and doxorubicin viability vs non-targeting: higher = more viable cells under doxorubicin; viability z-score without drug: higher = more viable cells with knock-down alone; z-score of drug to no-drug ratio: higher = less drug sensitisation by knock-down
- Rule for the call: 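Called active if knock-down leaves viability unchanged without drug (z within -2 to 2) but lowers it with doxorubicin (z at or under -2)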

gene knocked down	combined z-score class	viability z-score with doxorubicin	viability z-score without drug	z-score of drug to no-drug ratio	doxorubicin viability vs non-targeting
Atg16l1	no change with or without drug	-0.22	-0.17	0	0.92
F11r	no change with or without drug	0.45	0.17	0.45	0.98
Crygd	no change with or without drug	-0.9	0.67	-1.24	0.86
Hnrnph2	no change with or without drug	0	-0.17	0.22	0.94
Reep3	no change with or without drug	1.35	0	1.57	1.06
Atg12	low cell count with doxorubicin only (active)	-2.36	0.84	-2.81	0.73
Ift80	no change with or without drug	-0.79	1.52	-1.57	0.87
Ubtf	no change with or without drug	0.67	-0.17	0.9	1
Ppil3	no change with or without drug	1.57	0.51	1.35	1.08
S100a8	no change with or without drug	-0.67	-0.17	-0.45	0.88
Erlin2	no change with or without drug	-1.12	-0.17	-1.01	0.84
Lrrc72	no change with or without drug	-1.12	-1.18	-0.34	0.84
Cidea	no change with or without drug	-0.9	-0.51	-0.56	0.86
Pmepa1	no change with or without drug	0.22	1.52	-0.67	0.96
Lratd2	no change with or without drug	0.67	1.69	-0.34	1
Sult2a2	no change with or without drug	0.67	0.84	0.22	1
Klf12	no change with or without drug	-0.9	0	-0.79	0.86
Clca3a1	no change with or without drug	-1.35	-0.84	-0.79	0.82
Slc25a41	no change with or without drug	0.67	1.52	-0.22	1
Il20	no change with or without drug	0.45	0.17	0.45	0.98
Nek2	no change with or without drug	-0.45	0.17	-0.45	0.9
Zwint	no change with or without drug	-0.22	-0.84	0.45	0.92
Eapp	no change with or without drug	0.9	1.85	-0.22	1.02
Nol3	no change with or without drug	0.9	1.18	0.22	1.02
Arhgap39	no change with or without drug	0	-0.84	0.67	0.94
Tuba1b	low cell count without drug only	-1.35	-3.88	1.8	0.82
Or4f58	low cell count with doxorubicin only (active)	-2.14	-1.35	-1.35	0.75
Ldhal6b	no change with or without drug	0.45	0.51	0.22	0.98
Rsph6a	no change with or without drug	-0.45	1.69	-1.35	0.9
Smarcal1	no change with or without drug	-0.45	-1.52	0.79	0.9
B3gnt5	no change with or without drug	0.22	0.84	-0.22	0.96
Ndel1	no change with or without drug	0.67	0.84	0.22	1
Rex2	no change with or without drug	1.24	0.51	1.01	1.05
Adgrf4	no change with or without drug	-0.22	0.17	-0.22	0.92
Usf2	no change with or without drug	0.22	-0.17	0.45	0.96
Fzd2	no change with or without drug	-1.57	-1.18	-0.79	0.8
Mrps12	low cell count with and without drug	-2.25	-2.53	-0.67	0.74
Or8g19	high cell count with doxorubicin only	2.02	1.35	1.24	1.12
Crybb2	no change with or without drug	-0.79	-0.34	-0.45	0.87
Gstp2	no change with or without drug	-0.56	-0.34	-0.22	0.89
Map3k13	high cell count with doxorubicin only	2.36	1.85	1.12	1.15
Slc11a2	no change with or without drug	-0.22	-0.51	0.22	0.92
D930030O05Rik	no change with or without drug	-0.9	-0.17	-0.79	0.86
4631423B10Rik	low cell count with doxorubicin only (active)	-2.25	-1.52	-1.35	0.74
Sp7	no change with or without drug	0.67	1.18	0	1
Fam20c	no change with or without drug	0.9	0.17	0.9	1.02
Rab39b	no change with or without drug	-0.22	-0.84	0.45	0.92
Necab1	no change with or without drug	-0.22	0.84	-0.67	0.92
Lrrc19	low cell count with and without drug	-2.59	-3.54	-0.22	0.71
P2ry2	no change with or without drug	1.8	0.51	1.57	1.1

Called active, of those listed so far:
gene knocked down	combined z-score class	viability z-score with doxorubicin	viability z-score without drug	z-score of drug to no-drug ratio	doxorubicin viability vs non-targeting
Atg12	low cell count with doxorubicin only (active)	-2.36	0.84	-2.81	0.73
Or4f58	low cell count with doxorubicin only (active)	-2.14	-1.35	-1.35	0.75
4631423B10Rik	low cell count with doxorubicin only (active)	-2.25	-1.52	-1.35	0.74
